Test results as given in US20060264369.
For part of these data: Negatives hold for the conditions tested. For part of these data: The exact form of at least one protein or probe is not confirmed. For part of these data: Protein sequences can lack the tags named with them. For part of these data: Whether high values mean tight binding is not given here for every scale.

What follows are sequences tested against von Willebrand factor full length (Homo sapiens) (UniProt P04275) (assay: flow cytometry). Conditions: 2'-F pyrimidines; botrocetin-induced vWF binding to platelets; purified native protein; protein details: Calbiochem 681300.
With “GGACCACCCUCGCAAGCAUUGAGAAAUGACUUGUGCCGCUGGUCC [rRfY minimer SEQ 172]” the IC50 was 4.3 nM.
For “GGACCACCCUCGCAACGAGAGUUGUGCCGCUGGUCC [rRfY minimer SEQ 174]”, the IC50 was 6.6 nM.
In the case of “GGAGCGCACUCAGCCACCCUCGCAAGCAUUUUAAGAAUGACUUGUGCCGCUGGCUG [rRfY minimer SEQ 165]”, the IC50 is reported as 6.4 nM.
“GGACCACCCUCGCAAGCAUUUUAAGAAUGACUUGUGCCGCUGGUCC [rRfY minimer SEQ 169]” showed an IC50 of 6.9 nM.

Same assay, conditions: ribo purines, deoxy pyrimidines; botrocetin-induced vWF binding to platelets; purified native protein; protein details: Calbiochem 681300
Work on “GGAGCGCACTCAGCCACGGGGTGGGTAGACGGCGGGTATGTGGCT [rRdY minimer SEQ 177]” yielded an IC50 of 3 nM.
“GGAGCGCACTCAGCCACACGACATTGGCGGGTTGTAATTACCACGCATGGCTG [rRdY minimer SEQ 186]” showed an IC50 of 1.3 nM.

What follows are sequences tested on T1, von Willebrand factor A1 domain (rabbit) (Oryctolagus cuniculus) (assay: flow cytometry). Conditions: 2'-F pyrimidines; botrocetin-induced rabbit A1 binding to platelets; purified recombinant protein; protein details: 6xHis.
T1 sequence (limits assumed): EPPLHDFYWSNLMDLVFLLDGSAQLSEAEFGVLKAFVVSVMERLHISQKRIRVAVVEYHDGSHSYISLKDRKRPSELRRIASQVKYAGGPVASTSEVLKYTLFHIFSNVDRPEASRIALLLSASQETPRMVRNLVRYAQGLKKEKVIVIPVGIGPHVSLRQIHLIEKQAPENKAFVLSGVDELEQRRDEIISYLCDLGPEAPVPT
“GGACCACCCUCGCAACGAGAGUUGUGCCGCUGGUCC [rRfY minimer SEQ 174]” showed an IC50 of 6.8 nM.

Each sequence was assayed against von Willebrand factor full length (Homo sapiens) (UniProt P04275) (assay: filter binding). Conditions: 20 nM protein; purified native protein; protein details: Calbiochem 681300; single-stranded DNA.
“CTACCTACGATCTGACTAGCCAGTTCTGGGAAAAATCATTTTTTATTTCGATCGTATTTGCTTACTCTCATGTAGTTCC [AMX238.D9]” was tested, and the binding signal (ratio to no protein) was 1.22.
Work on “CTACCTACGATCTGACTAGCTCCAGTGTTTTATATAATAACCGTGCGGTGCCTCCGTGATGCTTACTCTCATGTAGTTCC [AMX237.D11]” yielded a binding signal (ratio to no protein) of 1.16.
In the case of “CTACCTACGATCTGACTAGCTTGGTAGCGACTTTGTGGAGCTGCGGTTTGGTCGACATCAGCTTACTCTCATGTAGTTCC [AMX237.H8]”, the binding signal (ratio to no protein) is reported as 1.21.
In the case of “CTACCTACGATCTGACTAGCTCCAGTGTTTTATCTAATAACCGTGCGGTGCCTCCGTGATGCTTACTCTCATGTAGTTCC [AMX237.F6]”, the binding signal (ratio to no protein) is reported as 1.2.
“CTACCTACGATCTGACTAGCCAGTTCTGGGAAAAATTATTTTTTTATTTCGATCGTATATGCTTACTCTCATGTAGTTCC [AMX238.A12]” showed a binding signal (ratio to no protein) of 1.23.
“CTACCTACGATCTGACTAGCTTGGTAGCGACCCTGTGGAGCTGCGGTTTGGTCGACGTCAGCTTACTCTCATGTAGTTCC [AMX236.E6]” gave a binding signal (ratio to no protein) of 1.31.
With “CTACCTACGATCTGACTAGCCAGTTCTGGGAAAAATTATTTTTTTATTTCGATCGTATTTGCTTACTCTCATGTAGTTCC [AMX236.C9]” the binding signal (ratio to no protein) was 1.24.
In the case of “CTACCTACGATCTGACTAGCTCCAGTGTTTTATCCAATAACCGTGCGGTGCCTCCGTGATGCTTACTCTCATGTAGTTCC [AMX236.F8]”, the binding signal (ratio to no protein) is reported as 1.14.
“CTACCTACGATCTGACTAGCGGAATGAGTATGCTGGTGGATTGCTCAGGTCTGCTGGCTGCTTACTCTCATGTAGTTCC [AMX238.F6]” was tested, and the binding signal (ratio to no protein) was 1.18.
Sequence “CTACCTACGATCTGACTAGCCCCCACTTATCGTGTACCTTATGATATGTCGAATACTCTTGCTTACTCTCATGTAGTTCC [AMX236.F7]” has a binding signal (ratio to no protein) of 1.18.
For “CTACCTACGATCTGACTAGCTTGTCGCACTTTTGGTTGGTCTGGTTGGTTTTAAGTGCGCTTACTCTCATGTAGTTCC [AMX238.H9]”, the binding signal (ratio to no protein) was 1.11.
“CTACCTACGATCTGACTAGCAAGGGGATTGGCTCCGGGTCTGGCGTGCTTGGCATCTTTGGCTTACTCTCATGTAGTTCC [AMX238.F7]” showed a binding signal (ratio to no protein) of 1.2.
“CTACCTACGATCTGACTAGCGGAATGAGAATGCAGGTGGATTGCTCAGGTCTGCTGGCTGCTTACTCTCATGTAGTTCC [AMX237.B12]” was tested, and the binding signal (ratio to no protein) was 1.13.
“CTACCTACGATCTGACTAGCTCCAGTGTTTTATTCAATAACCGTGCGGTGCCTCCGTGATGCTTACTCTCATGTAGTTCC [AMX237.C7]” was tested, and the binding signal (ratio to no protein) was 1.15.
“CTACCTACGATCTGACTAGCTCCAGTGTTTTATCCAATAACCGTGCGGGGCCTCCGTGATGCTTACTCTCATGTAGTTCC [AMX238.G6]” gave a binding signal (ratio to no protein) of 1.25.
“CTACCTACGATCTGACTAGCGGAATGAGAATGCTGGTGGATTGCTCAGGTCTGCTGGCTGCTTACTCTCATGTAGTTCC [AMX237.E10]” gave a binding signal (ratio to no protein) of 1.12.
Sequence “CTACCTACGATCTGACTAGCTCAAAGTATTACTTATTGGCAATAAGTCGTTTACTCTATAGCTTACTCTCATGTAGTTCC [AMX238.A3]” has a binding signal (ratio to no protein) of 1.36.

Same assay, conditions: 2'-OMe C24 C32 C33, 3'-idT; no binding; purified native protein; protein details: Calbiochem 681300; label: 5'-32P; variant of ARC1172
“GGCGTGCAGTGCCTTCGGCCGTGCGGTGCCTCCGTCACGCC [ARC1242]”: no binding.

Same assay, conditions: 2'-OMe G25 G26 G34, 3'-idT; no binding; purified native protein; protein details: Calbiochem 681300; label: 5'-32P; variant of ARC1172
“GGCGTGCAGTGCCTTCGGCCGTGCGGTGCCTCCGTCACGCC [ARC1241]”: no binding.

Same assay, conditions: 2'-OMe at 24-26 and 32-34, 3'-idT; no binding; purified native protein; protein details: Calbiochem 681300; label: 5'-32P; variant of ARC1172
“GGCGTGCAGTGCCTTCGGCCGTGCGGTGCCTCCGTCACGCC [ARC1243]”: no binding.

Same assay, conditions: 2'-OMe/deoxy composite with mT, 3'-idT; no binding; negative control; purified native protein; protein details: Calbiochem 681300; label: 5'-32P; variant of ARC1368
“GCGUGCAGUGCCUUCGGCCGTGCGGTGCCUCCGUCACGC [ARC1525]”: no binding.

Same assay, conditions: internal PEG spacer replacing TGCCT between CGTGCGG and CCGTC, 3'-idT; no binding; purified native protein; protein details: Calbiochem 681300; label: 5'-32P; single-stranded DNA; variant of ARC1027
“GGCGTGCAGTGCCTATTCTAGGCCGTGCGGCCGTCACGCC [ARC1030]”: no binding.

Same assay, conditions: two internal PEG spacers, 3'-idT; no binding; purified native protein; protein details: Calbiochem 681300; label: 5'-32P; single-stranded DNA; variant of ARC1027
“GGCGTGCAGTGCCTAGGCCGTGCGGCCGTCACGCC [ARC1031]”: no binding.

These sequences were tested against von Willebrand factor A1 domain (human) (Homo sapiens) (UniProt P04275) (assay: filter binding). Conditions: 100 nM protein; purified recombinant protein; single-stranded DNA.
“CTACCTACGATCTGACTAGCGAAACACTAGGTTGGTTAGGATTGGTGTGTTCCCGCTCTGCTTACTCTCATGTAGTTCC [AMX199.F6]” showed a binding signal (ratio to no protein) of 1.37.
“CTACCTACGATCTGACTAGCGGAATGAGAGTGCTGATGGATTGCTCAGGTCTACTGGCTGCTTACTCTCATGTAGTTCC [AMX200.D1]” gave a binding signal (ratio to no protein) of 1.26.
With “CTACCTACGATCTGACTAGCGAAACACTAGGTTGGTTAGGATTGGTGTGTTTCCGTTCTGCTTACTCTCATGTAGTTCC [AMX199.F10]” the binding signal (ratio to no protein) was 1.17.
In the case of “CTACCTACGATCTGACTAGCGGAACACTAGGTTGGTTAGGATTGGTGTGTTCCCGTTTTGCTTACTCTCATGTAGTTCC [AMX199.A10]”, the binding signal (ratio to no protein) is reported as 1.25.
With “CTACCTACGATCTGACTAGCGAAACACTAGGTTGGTTAGGATTGGTGTGTTCCCGCTTTGCTTACTCTCATGTAGTTCC [AMX199.G1]” the binding signal (ratio to no protein) was 1.19.
In the case of “CTACCTACGATCTGACTAGCGAAACACTAGGTTGGTTAGGATTGGTGTGTTTCCGCTTTGCTTACTCTCATGTAGTTCC [AMX199.H7]”, the binding signal (ratio to no protein) is reported as 1.32.
For “CTACCTACGATCTGACTAGCAAGGGGATTGGCTCCGGGTCTGGCGTGCTCGGCACTTCCGGCTTACTCTCATGTAGTTCC [AMX202.A8]”, the binding signal (ratio to no protein) was 1.27.

Same assay, conditions: ribo purines, deoxy pyrimidines; 100 nM protein; purified recombinant protein
“GGAGCGCACTCAGCCACTCAAGGGGGTCGCGTGGGGACGAAGGGTTGCAGTGTGTCGTTTCGACCTCTCTGCTAGC [AMX205.A7]” gave a binding signal (ratio to no protein) of 1.24.
Work on “GGAGCGCACTCAGCCACAACTGGTTGTCGGTGATGGCATTAACGCGGACCAGGCATGTTTCGACCTCTCTGCTAGC [AMX205.G9]” yielded a binding signal (ratio to no protein) of 1.3.
For “GGAGCGCACTCAGCCACCACGGGGACGGGTAGGGCGGGCGAGGTGGTGGCATTAGCGTTTCGACCTCTCTGCTAGC [AMX203.A6]”, the binding signal (ratio to no protein) was 1.16.

What follows are sequences tested on von Willebrand factor A1 domain (Oryctolagus cuniculus) (assay: filter binding). Conditions: internal PEG spacer replacing TGCCT between CGTGCGG and CCGTC, 3'-idT; no binding; purified recombinant protein; protein details: 6-His; label: 5'-32P; single-stranded DNA; variant of ARC1027.
“GGCGTGCAGTGCCTATTCTAGGCCGTGCGGCCGTCACGCC [ARC1030]”: no binding.

Same assay, conditions: two internal PEG spacers, 3'-idT; no binding; purified recombinant protein; protein details: 6-His; label: 5'-32P; single-stranded DNA; variant of ARC1027
“GGCGTGCAGTGCCTAGGCCGTGCGGCCGTCACGCC [ARC1031]”: no binding.
